Reference: PMC8466742
Results are given in words; binding and its absence hold for the method and conditions named. Binding seen in cells or lysates may run through a third protein. Some entries that bind do so weakly or less than the wild type. For some assays here: Where a sequence is shown, tags or fusion partners need not be part of it.

By UniProt entry, the sequences of proteins in these tests, tags left out.
UniProt P08183: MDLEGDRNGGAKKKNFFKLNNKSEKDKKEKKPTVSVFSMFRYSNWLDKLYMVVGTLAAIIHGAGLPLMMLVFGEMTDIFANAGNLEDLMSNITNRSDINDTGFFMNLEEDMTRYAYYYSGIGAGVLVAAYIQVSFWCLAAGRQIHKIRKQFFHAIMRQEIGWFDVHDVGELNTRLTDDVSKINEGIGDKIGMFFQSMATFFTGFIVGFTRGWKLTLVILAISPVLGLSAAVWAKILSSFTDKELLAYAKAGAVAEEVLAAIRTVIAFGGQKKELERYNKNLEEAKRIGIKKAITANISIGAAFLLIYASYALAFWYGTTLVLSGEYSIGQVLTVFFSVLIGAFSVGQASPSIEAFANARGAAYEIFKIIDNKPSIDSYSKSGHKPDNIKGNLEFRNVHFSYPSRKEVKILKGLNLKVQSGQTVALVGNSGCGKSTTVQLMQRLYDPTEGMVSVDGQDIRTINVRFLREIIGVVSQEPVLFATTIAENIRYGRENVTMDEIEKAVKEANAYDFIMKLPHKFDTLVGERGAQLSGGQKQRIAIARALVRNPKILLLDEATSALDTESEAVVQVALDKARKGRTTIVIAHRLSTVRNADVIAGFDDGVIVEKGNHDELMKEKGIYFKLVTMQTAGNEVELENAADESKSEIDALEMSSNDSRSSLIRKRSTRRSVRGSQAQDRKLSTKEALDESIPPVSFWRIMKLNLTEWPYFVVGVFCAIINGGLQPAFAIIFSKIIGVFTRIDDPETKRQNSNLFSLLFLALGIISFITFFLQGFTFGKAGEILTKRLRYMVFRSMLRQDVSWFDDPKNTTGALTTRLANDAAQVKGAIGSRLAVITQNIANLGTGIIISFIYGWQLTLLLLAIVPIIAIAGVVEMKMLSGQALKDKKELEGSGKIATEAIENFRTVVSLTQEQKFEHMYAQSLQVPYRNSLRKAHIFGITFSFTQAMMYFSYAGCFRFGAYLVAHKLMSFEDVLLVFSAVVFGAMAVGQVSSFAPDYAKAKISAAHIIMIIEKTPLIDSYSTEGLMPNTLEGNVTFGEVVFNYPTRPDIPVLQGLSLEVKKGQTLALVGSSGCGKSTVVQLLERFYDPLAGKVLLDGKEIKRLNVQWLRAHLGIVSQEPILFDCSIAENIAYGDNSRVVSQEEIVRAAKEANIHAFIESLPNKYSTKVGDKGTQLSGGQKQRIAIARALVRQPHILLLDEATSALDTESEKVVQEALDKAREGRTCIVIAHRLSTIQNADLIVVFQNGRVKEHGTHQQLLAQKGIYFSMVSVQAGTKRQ

B1: 3 x Flag-MARCH8 (membrane-associated RING-CH 8) (enzyme, UniProt Q5T0T0 1-291)
chain: MSMPLHQISAIPSQDAISARVYRSKTKEKEREEQNEKTLGHFMSHSSNISKAGSPPSASAPAPVSSFSRTSITPSSQDICRICHCEGDDESPLITPCHCTGSLHFVHQACLQQWIKSSDTRCCELCKYEFIMETKLKPLRKWEKLQMTSSERRKIMCSVTFHVIAITCVVWSLYVLIDRTAEEIKQGQATGILEWPFWTKLVVVAIGFTGGLLFMYVQCKVYVQLWKRLKAYNRVIYVQNCPETSKKNIFEKSPLTEPNFENKHGYGICHSDTNSSCCTEPEDTGAEIIHV
B2: endogenous MARCH8 (enzyme, UniProt Q5T0T0 1-291)
chain: MSMPLHQISAIPSQDAISARVYRSKTKEKEREEQNEKTLGHFMSHSSNISKAGSPPSASAPAPVSSFSRTSITPSSQDICRICHCEGDDESPLITPCHCTGSLHFVHQACLQQWIKSSDTRCCELCKYEFIMETKLKPLRKWEKLQMTSSERRKIMCSVTFHVIAITCVVWSLYVLIDRTAEEIKQGQATGILEWPFWTKLVVVAIGFTGGLLFMYVQCKVYVQLWKRLKAYNRVIYVQNCPETSKKNIFEKSPLTEPNFENKHGYGICHSDTNSSCCTEPEDTGAEIIHV

Experiments:
[1] = biological target: Myc-ABCB1 (ATP-binding cassette subfamily B member 1) (UniProt P08183); assay: co-IP; HEK293T co-transfected with Myc-ABCB1 with or without 3 x Flag-MARCH8; IP with anti-Myc antibody, immunoblot with anti-Flag and anti-Myc; lysis buffer 50 mM Tris-HCl pH 8.0, 150 mM NaCl, 1% NP-40, 0.5% sodium deoxycholate, 0.2% SDS
[2] = biological target: endogenous ABCB1 (human (endogenous in MCF-7/ADR and A549/Taxol)) (UniProt P08183); assay: co-IP; endogenous proteins in lysates of MCF-7/ADR and A549/Taxol cells; IP overnight at 4 °C with indicated antibody and protein A-Sepharose; lysis buffer 50 mM Tris-HCl pH 8.0, 150 mM NaCl, 1% NP-40, 0.5% sodium deoxycholate, 0.2% SDS

Row | Binder | binding [1] | binding [2]
1 | B1 | binds | 
2 | B2 |  | binds
